# Library screening results

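Assay on Mycobacterium tuberculosis, filed only as a heat shock assay from Cornell; the read-out is not stated. The concentration is filed as 10 mM, unlikely as a test dose, so the dose is not known. Direction is inferred from retests: higher values go with stronger inhibition. Of about 69,000 compounds tested this way, about 930 (1.4%) reached 50% or more in at least one test.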

Values are the deposited “Percent Effect”, in %.
How 0% and 100% were set is not recorded. Most values in the screen are low, and negative values occur.
This is an unselected part of the compounds tested.

- Cc1[nH]c2ccc(C(=O)N3C[C@@H](O)[C@H](N4CCOCC4)C3)cc2c1C : 1.361%
- CCn1cnnc1C1CCN(C(=O)CC(C)n2cccc2)CC1 (centres unmarked) : 18.85%
- CC(C)c1nncn1CCNC(=O)c1ccc(Cl)cc1O : -1.464%
- Cc1ccc2c(c1)CN(CC(=O)NCCc1ccc(F)cc1)CC(C)O2 (centres unmarked) : -4.66%
- Cc1nc(C)n(CC2CN(CCCOc3ccccc3)CCO2)n1 (centres unmarked) : -5.567%
- COc1ccc(CC(=O)N2CCN(C)c3ncccc3C2)cc1.O=C(O)C(F)(F)F : -33.98%
- [H][C@@]12C[C@@H](Oc3cccnc3)CN1CCN(Cc1ccccn1)C2 : -33.71%
- N[C@@H]1c2ccccc2C2(CCN(C(=O)c3ccc(Cl)cn3)CC2)[C@H]1O : -10.58%
- O=S1(=O)NC(c2ccnc(N3CCOCC3)n2)=Nc2ccccc21 : -4.103%
- CCC(CO)(CO)NC(=O)C1CCC(=O)N(CCc2ccccc2)C1 (centres unmarked) : 8.574%
- CCc1nccn1C1CCCN(C(=O)c2cnc3onc(C)c3c2)C1 (centres unmarked) : -0.1387%
- Cc1cc(C)c(CNC(=O)N(C)Cc2cccc(C#N)c2)c(=O)[nH]1 : 1.249%
- CC(C)CC(=O)N1CCCCC(NC(=O)CCc2cccnc2)C1 (centres unmarked) : -29.13%
- Cc1c(CN2CCOCC2)c(O)n(CCO)c(=O)c1C#N : -38.22%
- Cc1ccc(N2CC[C@H](OCC3CC3)[C@@H]2Cc2cccnc2)nn1.O=C(O)C(F)(F)F : 8.551%
- CCOC1CCN(C(=O)NCc2ccc(CN3CCOCC3)cc2)CC1 : -20.87%
- CN1CCCC(c2nnc3n2CCN(S(=O)(=O)c2ccccc2Cl)C3)C1 (centres unmarked) : 0.8721%
- O=C(c1cccc2c1OCO2)N1CCCC(n2ccnc2)C1 (centres unmarked) : -5.892%
- CC(C)N1CCC(N(C)c2ccnc(N(C)C)n2)CC1 : -29.93%
- Cl.[H][C@@]12CN(C3CCCC3)CC[C@]1([H])N(C(=O)C1CCCC1)C[C@H]2c1ccsc1 : 3.962%
- [H][C@]12CCN(c3ncccn3)CC[C@@]1([H])S(=O)(=O)N(CCOC)C2 : -16.31%
- CC(C)C(C(=O)N1CCN(Cc2cscn2)CC1)n1cncn1 (centres unmarked) : -27.33%
- Cc1nccn1-c1cc(CNC(=O)C2CCC(=O)N2)ccn1 (centres unmarked) : -6.899%
- Cc1ccc(F)cc1CC(=O)N(CCN1CCOCC1)Cc1ccco1 : -25.49%
- CCS(=O)(=O)NC(CCSC)C(=O)Nc1cc(F)ccc1C (centres unmarked) : 5.449%
- CC(C)c1nccn1-c1cccc(C2CCCN(S(=O)(=O)N(C)C)C2)n1 (centres unmarked) : -18.78%
- [H][C@]12CC[C@]([H])(CN(Cc3cccnc3)C1)N(C(=O)c1cc(C(C)C)on1)C2 : 33.32%
- CC(C)C1CCCN1CC(=O)NCc1ccc(OCC(N)=O)cc1 (centres unmarked) : -2.502%
- Cc1n[nH]c(C)c1C1COCCN1C(=O)Cc1cccc(F)c1 (centres unmarked) : 0.4047%
- COc1ccccc1C(=O)NC(C)CC(=O)O (centres unmarked) : -20.89%
- CCC(C)(C)C(=O)NCCCOC1CCOC1 (centres unmarked) : 3.222%
- C[C@@H]1C[C@H](C(F)(F)F)n2nc(C3CCN(C(=O)C(C)(C)C)CC3)cc2N1 : 10.57%
- CN(CC(=O)N1CCC(COc2ccccc2)CC1)c1cnccn1 : 28.91%
- CN1CCN(CCOc2ccc(NC(=O)c3ccncc3)cc2)CC1 : -34.82%
- CN(C)CCn1c2c(ccc1=O)CCN(C(=O)c1cccs1)CC2.O=C(O)C(F)(F)F : -16.32%
- COCCNC(=O)c1nc(-c2ccc3cc[nH]c3c2)no1 : 17.29%
- CCS(=O)(=O)NCCCn1ncc2c(C)cccc21 : 20.18%
- CN1CCCN(C(=O)c2nc3c(o2)CN(S(C)(=O)=O)C3)CC1 : -0.1106%
- Cc1ccsc1CN1CCc2nc3ccsc3c(=O)n2CC1.Cl : 3.746%
- CCN1CCN(Cc2c(C3CCCC3)[nH]c3ncccc23)CC1 : 9.404%
- CCN(CCN1CCCCCC1)C(=O)COc1cccnc1 : -25.96%
- CN(Cc1ccccc1)C(=O)CCNc1ncccc1C#N : -15.25%
- [H][C@@]12CCN(CC3CCOCC3)[C@]1([H])CC[C@@H](c1nnc(C)o1)O2 : 12.15%
- Cc1nc(C2CCCN2C(=O)c2cc3c(s2)CCCC3)no1 (centres unmarked) : -0.7008%
- CN(c1ccc(C(N)=O)nn1)C1CCC1 : 8.591%
- CSCC(=O)NS(=O)(=O)c1ccc(C#N)c(C(F)(F)F)c1 : -26.69%
- Cc1cccc(CN2CCC(c3nccn3CC(N)=O)CC2)n1 : -18.17%
- CCN(CC)CCCNCc1cc2cccc(C)c2[nH]c1=O : 5.66%
- CSCCC(CO)NC(=O)c1sc(-c2ccccc2Cl)nc1C (centres unmarked) : -11.71%
- O=c1[nH]c(-c2cccnc2)nc2c1CCN(S(=O)(=O)N1CCCC1)C2 : 0.2984%
- CC(=O)N1CC(=O)N(c2ccccc2)CC12CCN(Cc1cccs1)C2.O=C(O)C(F)(F)F (centres unmarked) : 5.914%
- NS(=O)(=O)CCNC(=O)CCc1cc(Br)cs1 : 4.784%
- OCCN1CCC(CNCCOCC(F)(F)F)CC1 : -15.52%

The last 4 entries again:

* O=c1[nH]c(-c2cccnc2)nc2c1CCN(S(=O)(=O)N1CCCC1)C2 : 0.2984%
* CC(=O)N1CC(=O)N(c2ccccc2)CC12CCN(Cc1cccs1)C2.O=C(O)C(F)(F)F (centres unmarked) : 5.914%
* NS(=O)(=O)CCNC(=O)CCc1cc(Br)cs1 : 4.784%
* OCCN1CCC(CNCCOCC(F)(F)F)CC1 : -15.52%

From ChEMBL document CHEMBL3988442, “University of Dundee, Small-Polar-MMV Screening Library” (2021).